Measured values published in article PMC4971072, “Chemically Homogenous Compounds with Antagonistic Properties at All α1-Adrenoceptor Subtypes but not β1-Adrenoceptor Attenuate Adrenaline-Induced Arrhythmia in Rats” (Frontiers in Pharmacology, 2016).
Structures can show the parent of a compound that is named as a salt.

Key:
[1] = system: lipid peroxidation in rat brain homogenate; experiment: Lipid peroxidation in rat brain homogenate (TBARS), antioxidant effect; assay type: biochemical; conditions: 10^−3 M
Description: The rat brain homogenate containing 10 mg tissue/ml was prepared in 0.9% saline. The rates of membrane lipid peroxidation were measured by the formation of thiobarbituric acid reactive substances (TBARS). Rat brain homogenates (1 ml) were incubated at 37°C for 5 min with 10 μl of a tested compound or vehicle. Lipid peroxidation was initiated by the addition of 50 μl of 0.5 mM FeCl2 and 50 μl of 2.0 mM ascorbic acid. After 30 min of incubation, the reaction was stopped by adding 0.1 ml of 0.2% butylated hydroxytoluene (BHT). Thiobarbituric acid reagent was then added and the mixture was heated for 15 min in a boiling water bath.

[2] = system: adrenaline-induced arrhythmia in rats; experiment: Therapeutic antiarrhythmic activity in adrenaline-induced arrhythmia; assay type: in vivo, rat; conditions: i.v. at ED84 at the peak of adrenaline-induced arrhythmia (20 μg/kg)
Description: The experiment was performed according to the method described by Szekeres and Papp ([1968]). The arrhythmia was evoked by the intravenous administration of adrenaline (20 μg/kg) into the caudal vein in anesthetized rats (thiopental, 75 mg/kg). […] The range of doses was 0.325−0.504 mg/kg. The ECG was recorded constantly for 5 min as well as in the 10th and 15th min of the experiment. The criterion of antiarrhythmic activity was the reduction of premature ventricular contractions in comparison with the control group (Sapa et al., [2011]).

α1-adrenoceptor = α1-adrenoceptor radioligand binding assay ([3H]-prazosin, rat cerebral cortex); conditions: read-out: Adrenergic receptors Ki α1
Description: The α1- and β1-adrenoceptor radioligand binding assay was performed on rat cerebral cortex. […] The cell pellet was resuspended in the Tris–HCl buffer and centrifuged again. Radioligand binding assays were performed in plates (MultiScreen/Millipore). […] The incubation was terminated by rapid filtration through glass fiber filters (Whatman GF/C) using a vacuum manifold (Millipore). The filters were then washed twice with the assay buffer and placed in scintillation vials with a liquid scintillation cocktail. […] All the assays were made in duplicate and the inhibitory constants (Ki) were estimated.
LO–labeled ligand concentration, KD–dissociation constant of labeled ligand

Ki (α1-adrenoceptor): 12.9 nM
SMILES: COc1ccccc1N1CCN(CCCOc2cc(C)ccc2C)CC1 [HBK-17, 1N-[3-(2,5-dimethylphenoxy)propyl]-4N-(2-methoxyphenyl)piperazine hydrochloride]
inhibition of lipid peroxidation (in words) [1]: inhibited lipid peroxidation
% reduction of absorbance (% antioxidant activity) ([1]; TBARs at 532 nm): 14.30%
Absorbance ([1]; TBARs at 532 nm): 0.773 ± 0.009
therapeutic antiarrhythmic activity (premature ventricular contractions) [2]: restored normal heart rhythm
